Measured values as given in patent US4517180A, “Peptides, process for preparing the same and psychodepressant compositions containing the same” (Amano Pharmaceutical Co., Ltd, priority 1982, dated 1985).
Part of at least one peptide drawing is inferred or uncertain, most often the ends. Where a SMILES comes first, the peptide text is derived from it.

Tested on: Male ICR mice
Assay: Inhibitory effect on hyperlocomotion induced by administration of methylphenidate
Assay type: in vivo
Details: s.c. with methylphenidate 10 mg/kg s.c., measured 1 hour after, 50 with control as 100
Description: Inhibitory effect on hyperlocomotion induced by administration of methylphenidate
Male ICR mice (weighing 24 to 30 g) were divided into groups, each including 10 mice. To one group of mice were subcutaneously given 10 mg/kg of methylphenidate and 0.1 ml/10 g of a saline solution of a specified amount of a test compound and 1 mM of sodium hydrogencarbonate. One hour after the administration, the test animals were checked for hyperlocomotion, which was measured with use of a device for measuring locomotion of small animals (wherein the motion of an animal shifts the center of graavity of the device to actuate a microswitch for the measurement of the amount of motion, see Folia Pharmacologica Japonica, 74, 629-639 (1978). For a control group, the same procedure as above was repeated except that the saline solution given was free from any test compound. The concentration of the test compound at which the result achieved by the group of animals was 50, namely, ED50 value, was determined, with the measurement obtained by the control group calculated as 100. The other compounds were tested in the same manner as above.

## CSCC[C@H](NC(=O)[C@H](Cc1ccc(OS(=O)(=O)O)cc1)NC(=O)c1ccccc1C(=O)O)C(=O)NCC(=O)N[C@@H](Cc1c[nH]c2ccccc12)C(=O)N[C@@H](CCSC)C(=O)N[C@@H](CC(=O)O)C(=O)N[C@@H](Cc1ccccc1)C(N)=O [Peptide F, Pht--Tyr(SO3 H)--Met--Gly--Trp--Met--Asp--Phe--NH2] (HELM PEPTIDE1{[O=C(O)c1ccccc1C(=O)[*:2]].[O=C([C@H](Cc1ccc(OS(=O)(=O)O)cc1)N[*:1])[*:2]].M.G.W.M.D.F.[am]}$$$$V2.0)
  ED50, inhibition of methylphenidate-induced hyperlocomotion: 0.2513 mg/kg
